Data as given in PubChem BioAssay AID1259308 (NCATS, 2017)
Here is an unselected part of about 59,000 reagents tested. About 1,510 of all reagents (2.6%) were called active. 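Calls use total luciferase alone and ignore viability, so some active siRNAs may act by altering cell number.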

- Assay: 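Knock-downs that increase output of a recombinant reporter protein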 (primary screen)
- System: human HEK293 embryonic kidney cells stably expressing firefly luciferase (HEK-CMV-Luc2-Hygro)
- Reagent: single siRNA against human genes, 0.8 pmol siRNA per well
- Timing: 72 h
- Read-out: 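Reporter luminescence and viable-cell signal on separate replicate plates, given as percent of non-targeting control and median/MAD z-scores, plus per-cell luciferase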
- Scale: total luciferase, z-score and total luciferase, % of control: higher = more reporter protein produced; luciferase per cell, z-score: higher = more reporter output per viable cell; viable cells, % of control: higher = more viable cells
- Call rule: 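An siRNA counts as active if its total luciferase robust z-score exceeds 3; genes with two or more such siRNAs out of three were retested with fresh siRNAs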
- Calls: active = raised luciferase; inactive = no rise

gene | PubChem SID | total luciferase, z-score | total luciferase, % of control | luciferase per cell, z-score | viable cells, % of control | outcome
LINC01348 (long independently transcribed non-coding RNA 1348) | SID160727669 | -0.479 | 72.4 | -0.133 | 83.7 | inactive
LINC01348 (long independently transcribed non-coding RNA 1348) | SID160774196 | -0.516 | 71.6 | -0.468 | 90.5 | inactive
LINC01348 (long independently transcribed non-coding RNA 1348) | SID160774197 | -0.95 | 63 | -0.387 | 77.9 | inactive
FAM47A (family with sequence similarity 47 member A) | SID160759675 | -0.956 | 62.9 | -0.986 | 91.1 | inactive
FAM47A (family with sequence similarity 47 member A) | SID160759676 | -1.88 | 44.4 | -1.8 | 79.8 | inactive
FAM47A (family with sequence similarity 47 member A) | SID160759677 | 0.595 | 93.7 | 0.558 | 90.4 | inactive
CKAP5 (cytoskeleton associated protein 5) | SID160723104 | -1.16 | 58.8 | 0.834 | 52.7 | inactive
CKAP5 (cytoskeleton associated protein 5) | SID160723105 | -1.23 | 57.4 | 1.19 | 46.9 | inactive
CKAP5 (cytoskeleton associated protein 5) | SID160723106 | -1.91 | 43.9 | -0.973 | 63.3 | inactive
CP (ceruloplasmin) | SID160747175 | -0.425 | 73.4 | 1.12 | 61.1 | inactive
CP (ceruloplasmin) | SID160747185 | 0.902 | 99.8 | 0.425 | 99.8 | inactive
CP (ceruloplasmin) | SID160747196 | -0.786 | 66.2 | -1.96 | 124 | inactive
CRYL1 (crystallin lambda 1) | SID160731348 | -0.753 | 66.9 | -0.626 | 88.2 | inactive
CRYL1 (crystallin lambda 1) | SID160740006 | 0.132 | 84.5 | -0.857 | 118 | inactive
CRYL1 (crystallin lambda 1) | SID160740007 | -0.764 | 66.7 | -0.862 | 93.5 | inactive
ZBED8L (ZBED8 like) | SID160761757 | -0.353 | 74.9 | -1.15 | 113 | inactive
ZBED8L (ZBED8 like) | SID160761759 | -1.69 | 48.3 | -1.23 | 74.6 | inactive
ZBED8L (ZBED8 like) | SID160761760 | -0.57 | 70.5 | 0.791 | 64 | inactive
MINAR1 (membrane integral NOTCH2 associated receptor 1) | SID160735835 | -0.0611 | 80.7 | -0.277 | 97 | inactive
MINAR1 (membrane integral NOTCH2 associated receptor 1) | SID160735836 | 1.6 | 114 | 1.13 | 94.3 | inactive
MINAR1 (membrane integral NOTCH2 associated receptor 1) | SID160735837 | -2.66 | 29 | -1.66 | 50.2 | inactive
TRPV3 | SID160759931 | -0.681 | 68.3 | -0.233 | 81.2 | inactive
TRPV3 | SID160759932 | 0.798 | 97.8 | 0.967 | 84.7 | inactive
TRPV3 | SID160759933 | -0.287 | 76.2 | -0.759 | 104 | inactive
COP1 (COP1 E3 ubiquitin ligase) | SID160747659 | 1.04 | 103 | 0.814 | 92.5 | inactive
COP1 (COP1 E3 ubiquitin ligase) | SID160747660 | 1.01 | 102 | 1.22 | 82.6 | inactive
COP1 (COP1 E3 ubiquitin ligase) | SID160747661 | -0.557 | 70.8 | -0.0297 | 79.8 | inactive

Single entries from the list:
Value of CKAP5 (cytoskeleton associated protein 5) [SID160723105] under “viable cells, % of control”: 46.9
Entry for TRPV3 [SID160759933] under “outcome”: inactive
COP1 (COP1 E3 ubiquitin ligase) [SID160747660], total luciferase, % of control = 102
Value for TRPV3 [SID160759931] under “total luciferase, z-score”: -0.681
ZBED8L (ZBED8 like) [SID160761759], viable cells, % of control = 74.6
Under “viable cells, % of control”, ZBED8L (ZBED8 like) [SID160761757] has 113

The results go on:
gene | PubChem SID | total luciferase, z-score | total luciferase, % of control | luciferase per cell, z-score | viable cells, % of control | outcome
SLC52A1 | SID160731487 | 0.00629 | 82 | -0.701 | 110 | inactive
SLC52A1 | SID160742853 | -0.567 | 70.6 | 0.67 | 66.1 | inactive
SLC52A1 | SID160742854 | 1.56 | 113 | 0.725 | 104 | inactive
CDKN2B (cyclin dependent kinase inhibitor 2B) | SID160741114 | -0.366 | 74.6 | -0.849 | 104 | inactive
CDKN2B (cyclin dependent kinase inhibitor 2B) | SID160741123 | -0.543 | 71.1 | -0.479 | 90.1 | inactive
CDKN2B (cyclin dependent kinase inhibitor 2B) | SID160741133 | 0.304 | 87.9 | 1.29 | 70 | inactive
SPINK1 (serine peptidase inhibitor Kazal type 1) | SID160717263 | 0.495 | 91.7 | -0.262 | 110 | inactive
SPINK1 (serine peptidase inhibitor Kazal type 1) | SID160717264 | -0.472 | 72.5 | -0.842 | 101 | inactive
SPINK1 (serine peptidase inhibitor Kazal type 1) | SID160731784 | -0.825 | 65.5 | -1.46 | 107 | inactive
BICC1 (BicC family RNA binding protein 1) | SID160731941 | -0.19 | 78.1 | 0.424 | 78.1 | inactive
BICC1 (BicC family RNA binding protein 1) | SID160750057 | 1.28 | 107 | 0.338 | 110 | inactive
BICC1 (BicC family RNA binding protein 1) | SID160750058 | -1.26 | 56.8 | -0.5 | 72.4 | inactive
S100G (S100 calcium binding protein G) | SID160731922 | -1.99 | 42.2 | -2.38 | 88.4 | inactive
S100G (S100 calcium binding protein G) | SID160735720 | 1.23 | 106 | 1.25 | 85.5 | inactive
S100G (S100 calcium binding protein G) | SID160735732 | 0.0765 | 83.4 | 0.529 | 81.1 | inactive
HYDIN (HYDIN axonemal central pair apparatus protein) | SID160742136 | -0.314 | 75.6 | 1.15 | 62.5 | inactive
HYDIN (HYDIN axonemal central pair apparatus protein) | SID160742137 | 0.12 | 84.3 | 0.539 | 81.7 | inactive
HYDIN (HYDIN axonemal central pair apparatus protein) | SID160742138 | -1.08 | 60.4 | -0.324 | 73.5 | inactive
DICER1 (dicer 1, ribonuclease III) | SID160736213 | -1.13 | 59.5 | -1.46 | 97.6 | inactive
DICER1 (dicer 1, ribonuclease III) | SID160736214 | -0.0262 | 81.4 | -0.33 | 99.2 | inactive
DICER1 (dicer 1, ribonuclease III) | SID160736215 | 2 | 122 | 1.89 | 82.6 | inactive
HS6ST3 (heparan sulfate 6-O-sulfotransferase 3) | SID160762677 | 1.8 | 118 | 1.71 | 83.9 | inactive
HS6ST3 (heparan sulfate 6-O-sulfotransferase 3) | SID160762678 | 1.01 | 102 | 0.235 | 107 | inactive
HS6ST3 (heparan sulfate 6-O-sulfotransferase 3) | SID160762679 | 0.0759 | 83.4 | -0.592 | 109 | inactive
SPATA31G1 (SPATA31 subfamily G member 1) | SID160757616 | 1.82 | 118 | 1.43 | 90.4 | inactive
SPATA31G1 (SPATA31 subfamily G member 1) | SID160757617 | -0.564 | 70.7 | -0.335 | 86.3 | inactive
SPATA31G1 (SPATA31 subfamily G member 1) | SID160757618 | 0.164 | 85.2 | 0.159 | 91.3 | inactive
STK32B (serine/threonine kinase 32B) | SID160731503 | 0.31 | 88 | 0.243 | 92.3 | inactive
STK32B (serine/threonine kinase 32B) | SID160743616 | -0.996 | 62.1 | -0.507 | 79.3 | inactive
STK32B (serine/threonine kinase 32B) | SID160743617 | -1.53 | 51.4 | -2.17 | 102 | inactive
